Assay results taken from the supplement of paper PMC10849652.
The list shows a part of the results.

By UniProt entry, the sequences of proteins in these tests, tags left out. Where a name states a change or a piece, a line headed by the entry shows the natural chain unless it says otherwise.
UniProt Q96G01: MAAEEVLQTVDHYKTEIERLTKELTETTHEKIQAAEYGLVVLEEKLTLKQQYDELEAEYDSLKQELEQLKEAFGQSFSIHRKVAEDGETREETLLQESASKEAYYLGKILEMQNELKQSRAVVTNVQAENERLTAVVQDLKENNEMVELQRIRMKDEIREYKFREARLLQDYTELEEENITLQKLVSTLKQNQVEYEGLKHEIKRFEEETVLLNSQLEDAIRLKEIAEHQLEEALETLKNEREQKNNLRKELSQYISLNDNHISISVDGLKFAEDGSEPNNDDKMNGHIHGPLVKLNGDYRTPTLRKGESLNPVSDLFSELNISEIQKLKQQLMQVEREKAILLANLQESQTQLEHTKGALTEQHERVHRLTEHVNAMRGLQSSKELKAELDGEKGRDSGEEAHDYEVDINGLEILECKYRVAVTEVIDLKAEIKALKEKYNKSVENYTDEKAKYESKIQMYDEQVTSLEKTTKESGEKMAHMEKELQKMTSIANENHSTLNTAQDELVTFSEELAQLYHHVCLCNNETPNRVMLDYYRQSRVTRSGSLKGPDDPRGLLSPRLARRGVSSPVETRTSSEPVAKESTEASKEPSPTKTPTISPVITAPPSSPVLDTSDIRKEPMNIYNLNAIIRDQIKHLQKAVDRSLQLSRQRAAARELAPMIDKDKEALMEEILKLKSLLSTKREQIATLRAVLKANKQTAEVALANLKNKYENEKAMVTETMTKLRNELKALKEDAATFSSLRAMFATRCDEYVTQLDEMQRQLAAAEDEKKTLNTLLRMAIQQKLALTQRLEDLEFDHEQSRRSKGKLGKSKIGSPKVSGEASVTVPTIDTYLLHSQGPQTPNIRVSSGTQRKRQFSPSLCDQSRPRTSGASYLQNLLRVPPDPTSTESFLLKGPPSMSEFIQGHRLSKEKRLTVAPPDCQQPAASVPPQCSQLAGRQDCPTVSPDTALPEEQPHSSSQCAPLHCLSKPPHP
UniProt P43251: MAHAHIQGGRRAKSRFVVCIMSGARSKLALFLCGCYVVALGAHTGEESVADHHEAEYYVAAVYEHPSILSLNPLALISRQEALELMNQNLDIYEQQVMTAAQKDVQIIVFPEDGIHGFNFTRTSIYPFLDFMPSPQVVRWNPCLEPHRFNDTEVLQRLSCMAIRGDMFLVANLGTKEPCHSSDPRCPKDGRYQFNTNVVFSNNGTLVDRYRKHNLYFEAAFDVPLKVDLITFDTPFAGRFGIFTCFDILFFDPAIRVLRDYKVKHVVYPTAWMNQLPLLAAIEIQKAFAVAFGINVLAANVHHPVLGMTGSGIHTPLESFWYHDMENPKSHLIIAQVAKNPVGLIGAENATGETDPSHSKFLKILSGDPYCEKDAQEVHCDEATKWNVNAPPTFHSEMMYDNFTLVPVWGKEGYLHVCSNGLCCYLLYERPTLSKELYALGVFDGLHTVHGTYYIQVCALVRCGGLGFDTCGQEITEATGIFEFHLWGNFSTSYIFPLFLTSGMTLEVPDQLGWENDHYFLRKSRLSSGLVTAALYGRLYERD
UniProt Q9NYF8, whole entry, looked up: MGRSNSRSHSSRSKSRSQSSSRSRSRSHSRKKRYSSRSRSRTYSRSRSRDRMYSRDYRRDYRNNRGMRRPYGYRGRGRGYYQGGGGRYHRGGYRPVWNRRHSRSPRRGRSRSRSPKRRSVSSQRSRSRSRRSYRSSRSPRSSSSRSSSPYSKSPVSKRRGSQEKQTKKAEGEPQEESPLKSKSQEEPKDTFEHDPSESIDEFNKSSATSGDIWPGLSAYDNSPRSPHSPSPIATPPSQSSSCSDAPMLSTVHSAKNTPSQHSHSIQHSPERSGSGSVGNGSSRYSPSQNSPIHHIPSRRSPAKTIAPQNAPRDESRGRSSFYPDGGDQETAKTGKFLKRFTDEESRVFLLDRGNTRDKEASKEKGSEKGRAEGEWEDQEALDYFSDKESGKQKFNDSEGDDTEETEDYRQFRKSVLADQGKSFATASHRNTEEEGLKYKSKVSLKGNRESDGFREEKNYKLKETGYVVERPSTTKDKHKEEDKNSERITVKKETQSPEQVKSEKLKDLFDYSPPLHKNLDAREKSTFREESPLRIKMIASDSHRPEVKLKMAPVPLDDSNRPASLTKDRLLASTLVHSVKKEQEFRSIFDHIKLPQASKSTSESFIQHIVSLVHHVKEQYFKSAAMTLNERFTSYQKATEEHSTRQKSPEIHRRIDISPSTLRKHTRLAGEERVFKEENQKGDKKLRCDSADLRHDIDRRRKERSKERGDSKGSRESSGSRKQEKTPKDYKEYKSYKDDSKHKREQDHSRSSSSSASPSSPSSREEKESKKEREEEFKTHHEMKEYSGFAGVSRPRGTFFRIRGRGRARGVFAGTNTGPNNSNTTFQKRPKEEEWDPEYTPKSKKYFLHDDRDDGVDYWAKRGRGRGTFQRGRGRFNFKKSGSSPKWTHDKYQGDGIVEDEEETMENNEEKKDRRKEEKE
UniProt P12694: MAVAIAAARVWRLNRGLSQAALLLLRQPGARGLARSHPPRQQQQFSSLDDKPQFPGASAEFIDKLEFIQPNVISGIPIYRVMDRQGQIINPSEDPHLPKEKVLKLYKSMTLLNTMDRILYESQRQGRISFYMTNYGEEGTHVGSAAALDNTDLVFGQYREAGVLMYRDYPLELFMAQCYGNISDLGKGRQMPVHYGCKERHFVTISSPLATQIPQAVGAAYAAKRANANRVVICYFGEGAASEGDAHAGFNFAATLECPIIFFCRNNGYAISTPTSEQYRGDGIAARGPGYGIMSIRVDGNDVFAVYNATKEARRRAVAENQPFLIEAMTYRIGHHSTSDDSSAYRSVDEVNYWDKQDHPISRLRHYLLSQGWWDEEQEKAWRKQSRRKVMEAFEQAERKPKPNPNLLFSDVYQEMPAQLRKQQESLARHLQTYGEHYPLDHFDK
UniProt Q9H0C5: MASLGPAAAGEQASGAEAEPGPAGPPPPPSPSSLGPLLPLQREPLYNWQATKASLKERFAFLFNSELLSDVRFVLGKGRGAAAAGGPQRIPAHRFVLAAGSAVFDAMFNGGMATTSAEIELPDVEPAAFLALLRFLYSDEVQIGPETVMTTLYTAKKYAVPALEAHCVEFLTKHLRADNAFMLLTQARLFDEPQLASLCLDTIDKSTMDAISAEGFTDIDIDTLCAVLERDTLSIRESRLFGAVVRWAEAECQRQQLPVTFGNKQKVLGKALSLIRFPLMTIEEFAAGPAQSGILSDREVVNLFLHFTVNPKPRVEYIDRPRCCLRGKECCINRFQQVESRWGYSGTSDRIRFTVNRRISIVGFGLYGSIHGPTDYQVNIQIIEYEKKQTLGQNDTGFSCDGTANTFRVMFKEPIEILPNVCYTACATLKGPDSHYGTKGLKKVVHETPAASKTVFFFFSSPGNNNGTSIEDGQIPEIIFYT
UniProt Q96B45: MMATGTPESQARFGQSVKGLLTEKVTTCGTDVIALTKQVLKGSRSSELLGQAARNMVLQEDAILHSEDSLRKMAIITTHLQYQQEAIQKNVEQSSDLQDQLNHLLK
UniProt Q9BXY8: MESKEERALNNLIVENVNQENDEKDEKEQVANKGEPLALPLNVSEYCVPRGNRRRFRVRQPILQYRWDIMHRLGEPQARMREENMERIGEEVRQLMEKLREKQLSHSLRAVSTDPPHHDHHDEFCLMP
UniProt Q16611: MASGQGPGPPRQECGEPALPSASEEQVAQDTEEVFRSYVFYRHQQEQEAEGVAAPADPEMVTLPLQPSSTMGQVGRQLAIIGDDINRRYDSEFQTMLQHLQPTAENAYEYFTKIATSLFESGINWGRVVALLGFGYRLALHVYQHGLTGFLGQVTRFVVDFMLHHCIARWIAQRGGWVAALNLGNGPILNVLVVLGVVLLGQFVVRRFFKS
UniProt Q12983, whole entry, looked up: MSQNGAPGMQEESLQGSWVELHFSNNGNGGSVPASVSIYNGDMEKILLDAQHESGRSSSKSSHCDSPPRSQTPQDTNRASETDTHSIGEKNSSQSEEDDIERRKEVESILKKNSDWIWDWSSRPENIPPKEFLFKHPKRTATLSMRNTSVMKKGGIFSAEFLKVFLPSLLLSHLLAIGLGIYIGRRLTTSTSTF
UniProt Q5T5X7: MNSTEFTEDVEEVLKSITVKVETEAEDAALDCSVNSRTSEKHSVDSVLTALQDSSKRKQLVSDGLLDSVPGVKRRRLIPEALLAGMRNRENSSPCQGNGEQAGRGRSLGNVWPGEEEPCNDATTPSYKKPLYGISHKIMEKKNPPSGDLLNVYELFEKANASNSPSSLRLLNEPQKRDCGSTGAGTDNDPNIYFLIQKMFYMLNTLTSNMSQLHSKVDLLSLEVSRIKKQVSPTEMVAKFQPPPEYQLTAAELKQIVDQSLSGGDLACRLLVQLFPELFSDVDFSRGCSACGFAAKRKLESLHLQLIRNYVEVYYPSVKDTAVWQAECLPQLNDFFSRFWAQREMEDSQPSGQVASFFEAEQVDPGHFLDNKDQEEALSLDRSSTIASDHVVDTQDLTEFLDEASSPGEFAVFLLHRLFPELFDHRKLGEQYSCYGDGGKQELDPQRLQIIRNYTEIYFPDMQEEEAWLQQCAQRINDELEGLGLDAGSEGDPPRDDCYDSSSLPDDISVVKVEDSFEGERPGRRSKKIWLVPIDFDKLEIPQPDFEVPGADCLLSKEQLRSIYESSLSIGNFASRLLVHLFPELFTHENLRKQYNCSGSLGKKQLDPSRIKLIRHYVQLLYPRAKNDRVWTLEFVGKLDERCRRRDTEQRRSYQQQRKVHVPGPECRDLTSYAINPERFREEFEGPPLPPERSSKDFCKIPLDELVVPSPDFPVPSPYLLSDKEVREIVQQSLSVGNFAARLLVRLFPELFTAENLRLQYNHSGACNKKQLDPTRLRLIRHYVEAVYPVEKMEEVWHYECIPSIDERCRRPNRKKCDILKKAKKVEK

What was measured:
Experiment in all cases: log2 fold change, soluble protein after heating vs DMSO (PISA); higher = thermal stabilisation; K562 lysate, 10 uM; active = over 0.2 and 3.5 SD of the protein, either way, in both replicates (recomputed)
vemurafenib = compound: CCCS(=O)(=O)Nc1ccc(F)c(C(=O)c2c[nH]c3ncc(-c4ccc(Cl)cc4)cc23)c1F [vemurafenib]
Procedure, shortened: (§1)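 To prepare the extract, K562 pellets were dounce-homogenised in PBS pH 7.4 with 1 mM MgCl2, giving crude material at 1 mg/mL protein. This was treated with 10 μM compound for 30 min, then heated in aliquots for 3 min over 48°C-58°C before pooling and addition of NP-40 to 0.5% at 4°C. Centrifugation at 21,000xg for 90 min left soluble protein in the supernatant, which TMTpro 16plex LC-MS/MS quantified with equalised channel sums. Results are log-two fold changes in thermal stability compared with solvent controls, from duplicates.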

[1] = compound: CCCS(=O)(=O)Nc1ccc(F)c(C(=O)c2c[nH]c3ncc(Cl)cc23)c1F
Procedure, shortened: as §1

barasertib = compound: CCN(CCCOc1ccc2c(Nc3cc(CC(=O)Nc4cccc(F)c4)[nH]n3)ncnc2c1)CCOP(=O)(O)O [barasertib]
Procedure, shortened: as §1

[2] = compound: CC[C@@H]1C(=O)N(C)c2cnc(Nc3ccc(C(=O)NC4CCN(C)CC4)cc3OC)nc2N1C1CCCC1
Procedure, shortened: as §1

volasertib = compound: CC[C@@H]1C(=O)N(C)c2cnc(Nc3ccc(C(=O)N[C@H]4CC[C@H](N5CCN(CC6CC6)CC5)CC4)cc3OC)nc2N1C(C)C [volasertib]
Procedure, shortened: as §1

[3] = compound: CCn1c(C(=O)N(C2CC2)C2CC2)cc2c3c(ncn3C)c(Nc3cc(C)n(C)n3)nc21
Procedure, shortened: as §1

[4] = compound: CCn1cc(-c2ccnc3[nH]c(-c4cccc(CN(C)C)c4)cc23)c(-c2ccc(NC(=O)N(C)C)cc2)n1
Procedure, shortened: as §1

[5] = compound: CN1CCC(CNc2ccc3ncc(-c4cccc(OC(F)(F)F)c4)n3n2)CC1
Procedure, shortened: as §1

saracatinib = compound: CN1CCN(CCOc2cc(OC3CCOCC3)c3c(Nc4c(Cl)ccc5c4OCO5)ncnc3c2)CC1 [saracatinib]
Procedure, shortened: as §1

sotrastaurin = compound: CN1CCN(c2nc(C3=C(c4c[nH]c5ccccc45)C(=O)NC3=O)c3ccccc3n2)CC1 [sotrastaurin]
Procedure, shortened: as §1

alvocidib = compound: CN1CC[C@H](c2c(O)cc(O)c3c(=O)cc(-c4ccccc4Cl)oc23)[C@H](O)C1 [alvocidib]
Procedure, shortened: as §1

Tubastatin A = compound: CN1CCc2c(c3ccccc3n2Cc2ccc(C(=O)NO)cc2)C1 [Tubastatin A]
Procedure, shortened: as §1

[6] = compound: CNC(=O)C1=CC=CC=C1NC2=NC(=NC=C2Cl)NC3=C(C=C(C=C3)N4CCOCC4)OC
Procedure, shortened: as §1

defactinib = compound: CNC(=O)c1ccc(Nc2ncc(C(F)(F)F)c(NCc3nccnc3N(C)S(C)(=O)=O)n2)cc1 [defactinib]
Procedure, shortened: as §1

[7] = compound: CNc1nc(-c2ccc3c(N)n[nH]c3c2)cc(N2C[C@@H](C(=O)NC3CCCCC3)CC[C@H]2C)n1
Procedure, shortened: as §1

encorafenib = compound: COC(=O)N[C@@H](C)CNc1nccc(-c2cn(C(C)C)nc2-c2cc(Cl)cc(NS(C)(=O)=O)c2F)n1 [encorafenib]
Procedure, shortened: as §1

[8] = compound: COC(=O)[C@H](CCSC)NC(=O)C1=C(C=C(C=C1)NC[C@H](CS)N)C2=CC=CC=C2
Procedure, shortened: as §1

alisertib = compound: COc1cc(Nc2ncc3c(n2)-c2ccc(Cl)cc2C(c2c(F)cccc2OC)=NC3)ccc1C(=O)O [alisertib]
Procedure, shortened: as §1

[9] = compound: COc1cc2nc(-c3cc(F)ccc3O)nc(N[C@@H]3CNC[C@H]3C(C)(C)O)c2cc1OC
Procedure, shortened: as §1

gefitinib = compound: COc1cc2ncnc(Nc3ccc(F)c(Cl)c3)c2cc1OCCCN1CCOCC1 [gefitinib]
Procedure, shortened: as §1

Measured: log2 fold change

BICD1 (UniProt Q96G01)
inactive: vemurafenib -0.083 | [1] -0.004 | barasertib -0.054 | [2] 0.055 | volasertib -0.008 | [3] -0.003 | [4] -0.104 | [5] 0.054 | saracatinib 0.023 | sotrastaurin 0.003 | alvocidib -0.01 | Tubastatin A 0.012 | [6] 0.017 | defactinib 0.011 | [7] 0.012 | encorafenib -0.016 | [8] 0.067 | alisertib 0.025 | [9] 0.009 | gefitinib -0.035

BTD isoform 3 (UniProt P43251)
inactive: vemurafenib 0.021 | [1] -0.054 | barasertib -0.189 | [2] 0.039 | volasertib 0.007 | [3] -0.022 | [4] -0.026 | [5] 0.112 | saracatinib -0.112 | sotrastaurin -0.047 | alvocidib -0.079 | Tubastatin A -0.004 | [6] 0 | defactinib 0.092 | [7] 0.061 | encorafenib -0.08 | [8] 0.019 | [9] 0.007

BCLAF1 (UniProt Q9NYF8)
inactive: vemurafenib -0.034 | [1] 0.03 | barasertib 0.027 | [2] -0.018 | volasertib 0.018 | [3] -0.032 | [4] 0.135 | [5] -0.083 | saracatinib 0.01 | sotrastaurin 0.039 | alvocidib -0.009 | Tubastatin A 0.055 | [6] -0.021 | defactinib -0.026 | [7] 0.043 | encorafenib 0.015 | [8] 0.025 | alisertib -0.048 | [9] -0.005 | gefitinib 0.058

BCKDHA (UniProt P12694)
inactive: vemurafenib 0.083 | [1] -0.007 | barasertib 0.046 | [2] 0.126 | volasertib -0.047 | [3] 0.008 | [4] 0.042 | [5] -0.024 | saracatinib 0.02 | sotrastaurin -0.005 | alvocidib 0.025 | Tubastatin A -0.059 | [6] 0.058 | defactinib -0.007 | [7] 0.144 | encorafenib 0.01 | [8] -0.093 | alisertib -0.013 | [9] 0.026 | gefitinib 0.166

BTBD1 (UniProt Q9H0C5)
inactive: vemurafenib -0.061 | barasertib -0.174 | [2] 0.012 | [4] -0.02 | [5] 0.025 | alvocidib -0.104 | [6] -0.024 | defactinib 0.073 | encorafenib 0.107 | [8] -0.011 | alisertib -0.014 | gefitinib 0.081

Reprinted from the entries so far (2 entries):
BTD isoform 3 (UniProt P43251)
inactive: vemurafenib 0.021 | [1] -0.054 | barasertib -0.189 | [2] 0.039 | volasertib 0.007 | [3] -0.022 | [4] -0.026 | [5] 0.112 | saracatinib -0.112 | sotrastaurin -0.047 | alvocidib -0.079 | Tubastatin A -0.004 | [6] 0 | defactinib 0.092 | [7] 0.061 | encorafenib -0.08 | [8] 0.019 | [9] 0.007

BCLAF1 (UniProt Q9NYF8)
inactive: vemurafenib -0.034 | [1] 0.03 | barasertib 0.027 | [2] -0.018 | volasertib 0.018 | [3] -0.032 | [4] 0.135 | [5] -0.083 | saracatinib 0.01 | sotrastaurin 0.039 | alvocidib -0.009 | Tubastatin A 0.055 | [6] -0.021 | defactinib -0.026 | [7] 0.043 | encorafenib 0.015 | [8] 0.025 | alisertib -0.048 | [9] -0.005 | gefitinib 0.058

More records:

BORCS7 (UniProt Q96B45)
inactive: vemurafenib -0.039 | [1] 0.012 | barasertib 0.18 | volasertib 0.048 | [4] -0.004 | [5] -0.182 | sotrastaurin 0.004 | alvocidib 0.125 | [6] -0.18 | defactinib 0.17 | alisertib -0.106 | [9] 0.051 | gefitinib -0.297

BEX2 isoform 2 (UniProt Q9BXY8)
inactive: vemurafenib 0.126 | [1] -0.077 | volasertib 0.083 | [4] -0.163 | [5] 0.131 | alvocidib -0.001 | defactinib -0.097 | [9] 0.012

BAK1 (UniProt Q16611)
inactive: vemurafenib 0.045 | [1] 0.056 | [2] 0.15 | volasertib -0.064 | [3] -0.138 | [4] -0.005 | [5] -0.025 | saracatinib 0.175 | sotrastaurin 0.014 | alvocidib 0.115 | Tubastatin A 0.163 | [6] -0.172 | defactinib 0.076 | [7] 0.024 | encorafenib 0.025 | [8] -0.113 | [9] -0.137

BNIP3 (UniProt Q12983)
inactive: [1] 0.035 | barasertib -0.037 | [2] 0.069 | volasertib 0.116 | [3] -0.023 | [4] -0.307 | [5] 0.149 | saracatinib 0.118 | sotrastaurin 0.03 | alvocidib -0.065 | Tubastatin A -0.058 | [6] 0.076 | [7] 0.081 | encorafenib 0.015 | [8] 0.018 | alisertib -0.043 | [9] -0.128 | gefitinib 0.021

BEND3 (UniProt Q5T5X7)
inactive: vemurafenib -0.059 | [1] 0.035 | [2] -0.145 | volasertib -0.074 | [3] 0.029 | [4] -0.02 | [5] 0.077 | saracatinib 0.026 | sotrastaurin 0.067 | alvocidib -0.11 | Tubastatin A -0.164 | [6] -0.057 | defactinib 0.015 | [7] -0.233 | encorafenib -0.007 | [8] 0.086 | [9] 0.023

B4GALT7 (UniProt Q9UBV7)
inactive: vemurafenib 0.193 | [2] 0.128 | [4] 0.329 | [5] -0.04 | sotrastaurin 0.002 | alvocidib 0.08 | [6] -0.034 | defactinib -0.065 | encorafenib -0.004 | [8] 0.093
